Assay results reported in patent publication US20250270304A1.
Results are given in words; binding and its absence hold for the method and conditions named. Some entries that bind do so weakly or less than the wild type.

Amino acid sequences for entries named in this document (tags omitted). A change or cut given only in a name is not applied to a line headed by its entry.
UniProt P08476: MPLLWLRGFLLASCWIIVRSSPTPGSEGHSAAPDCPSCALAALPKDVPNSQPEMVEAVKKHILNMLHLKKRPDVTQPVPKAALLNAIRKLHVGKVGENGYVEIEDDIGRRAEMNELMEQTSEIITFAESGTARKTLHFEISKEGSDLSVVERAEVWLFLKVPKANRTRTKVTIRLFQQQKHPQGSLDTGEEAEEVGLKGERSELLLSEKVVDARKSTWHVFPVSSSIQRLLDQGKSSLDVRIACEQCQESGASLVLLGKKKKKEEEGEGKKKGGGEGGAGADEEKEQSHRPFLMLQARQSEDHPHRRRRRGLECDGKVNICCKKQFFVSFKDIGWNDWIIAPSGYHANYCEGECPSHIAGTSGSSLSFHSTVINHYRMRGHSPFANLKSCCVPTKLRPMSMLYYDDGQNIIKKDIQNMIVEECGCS
UniProt P05111: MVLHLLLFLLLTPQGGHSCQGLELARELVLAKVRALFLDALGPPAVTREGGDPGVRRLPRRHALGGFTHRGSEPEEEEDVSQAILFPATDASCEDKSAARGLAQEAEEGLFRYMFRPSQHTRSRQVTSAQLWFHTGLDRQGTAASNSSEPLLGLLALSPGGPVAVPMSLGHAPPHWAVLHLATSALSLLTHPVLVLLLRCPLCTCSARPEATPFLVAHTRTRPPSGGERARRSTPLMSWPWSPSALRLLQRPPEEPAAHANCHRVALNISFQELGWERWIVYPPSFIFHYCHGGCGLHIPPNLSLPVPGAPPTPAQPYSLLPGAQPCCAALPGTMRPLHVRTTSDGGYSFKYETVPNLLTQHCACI

Experiments:
Mature Activin A (human) [1] = target: Mature Activin A (human) (UniProt P08476); experiment: ELISA on plate-coated antigen, IgG titrated 1:3 from […], anti-human IgG-HRP, A450; panel 'Activin A'
Mature Activin A (human) [2] = target: Mature Activin A (human) (UniProt P08476); experiment: ELISA dose-response, coated antigen
Mature Activin A (human) [3] = target: Mature Activin A (human) (UniProt P08476); experiment: ELISA, coated antigen, >[…] over BSA
Latent Activin A (human) [4] = target: Latent Activin A (human) (UniProt P08476); experiment: ELISA, coated antigen, >[…] over BSA
[5] = target: Inhibin A (Homo sapiens (Human)) (UniProt P05111); experiment: ELISA, coated antigen, >[…] over BSA
[6] = target: Inhibin A (Homo sapiens (Human)) (UniProt P05111); experiment: ELISA on plate-coated antigen, IgG titrated 1:3 from […], anti-human IgG-HRP, A450; panel 'Inhibin A' [continued]
Latent Activin A (human) [7] = target: Latent Activin A (human) (UniProt P08476); experiment: ELISA on plate-coated antigen, IgG titrated 1:3 from […], anti-human IgG-HRP, A450; panel 'Latent Activin A' [continued]

Row | Binder | binding (Mature Activin A (human) [1]) | binding (Mature Activin A (human) [2]) | binding (Mature Activin A (human) [3]) | binding (Latent Activin A (human) [4]) | binding [5] | binding [6] | binding (Latent Activin A (human) [7])
1 | AB843 (antibody, IgG1, V domains shown) VH: EVQLVQSGAEVKKPGASVKVSCKASGDTSSHSHIHWVRQAPGQGLEWMGWINPRSGATNYAQKLQGRGTMTTDPSTSTAYMELRSLRSDDTAVYYCARDRGGRTNGVGAFDIWGQGTMVTVSS VL: ESALTQPASVSGSPGQSITISCTGTSGDIGRYNYVSWYQQHPGKAPKLMIYEDIERPSGVSNRFSGSKSGNTASLTISGLQAEDEADYYCQVWDATLDLVFGGGTKLTVL | binds | binds | binds | binds | binds | binds | 
2 | AB439 (antibody, IgG1, V domains shown) VH: EVQLVQSGAEVKKPGASVKVSCKASGYTYTGYRISWVRQAPGQGLEWMGWIDPKSGRTNYAQKLQGRGTMTTDPSTSTAYMELRSLRSDDTAVYYCAREVKQWLVPGRGVYWFDPWGQGTLVTVSS VL: ESALTQPASVSGSPGQSITISCTGTNIGLRSVSWYQQHPGKAPKLMIYDTNIRSSGVSNRFSGSKSGNTASLTISGLQAEDEADYYCSSYTSSSTDVFGGGTKLTVL |  |  | binds | binds |  |  | 
3 | AB731 (antibody, IgG1, V domains shown) VH: QVQLQQPGTELVKPGASVKLSCKASGYTFTSYWMHWVKQRPGQGLEWIGNINPSNGGTNYNEKFKSKATLTVDKSSSTAYMQLSSLTSEDSAVYYCSITTVVAYWYFDVWGTGTTVTVSS VL: ENVLTQSPAIMSASPGEKVTISCSASSSVSYMYWYQQKPGSSPKPWIFRTYNLASGVPARFSGSGSGTSYSLTISNMEAEDAATYYCQQRSSYPWTFGGGTKLEIK | binds | binds |  |  |  |  | binds
4 | AB340 (antibody, IgG1, V domains shown) VH: EVQLVESGGGLVQPGGSLRLSCAASGFTASRNYMSWVRQAPGKGLELVASISGSGDYTYYPDSVKGRFTISRDNAKNSLYLQMNSLRAEDTAVYYCARSPRGPRLLGYYYGMDVWGQGTTVTVSS VL: DIVMTQSPLSLPVTPGEPASISCRSSRSLVHGSGHNYLHWYLQKPGQSPQLLIYGASTRVAGVPDRFSGSGSGTDFTLKISRVEAEDVGVYYCMQGTQAPRTFGGGTKVEIK |  |  | binds | binds |  |  | 

Next, values leading:

Row | binding (Mature Activin A (human) [1]) | binding (Mature Activin A (human) [2]) | binding (Mature Activin A (human) [3]) | binding (Latent Activin A (human) [4]) | binding [5] | binding [6] | binding (Latent Activin A (human) [7]) | Binder
5 |  |  | binds | binds |  |  |  | AB353 (antibody, IgG1, V domains shown) VH: QVQLQESGPGLVKPSQTLSLTCTVSGLSLSNAKMGVNWIRQPPGKGLEWIGYVSTTGTTDYNPSLKSRVTMSVDTSKNQFSLKVNSVTAADTAVYYCARAGYPDVWGKGTTVTVSS VL: EIVMTQSPATLSLSPGERATLSCRASQNVYTNLAWYQQKPGQAPRLLIYGASARASGIPARFSGSGSGTDFTLTISSLEPEDFAVYYCLQYGSSPPLFGGGTKVEIK
6 |  |  | binds | binds |  |  |  | AB432 (antibody, IgG1, V domains shown) VH: QVQLQESGPGLVKPSQTLSLTCTVSGVSLSNVRMGVNWIRQPPGKGLEWIGYVNPSGSTDYNPSLKSRVTMSVDTSKNQFSLKVNSVTAADTAVYYCARAGYPDVWGKGTLVTVSS VL: EIVMTQSPATLSLSPGERATLSCRASQSISSSQLAWYQQKPGQAPRLLIYGASTRATGIPARFSGSGSGTDFTLTISSLEPEDFAVYYCQQYNDRPRTFGGGTKVEIK
7 |  |  | binds | binds |  |  |  | AB350 (antibody, IgG1, V domains shown) VH: QVQLQESGPGLVKPSQTLSLTCTVSGVSLSDARMGVNWIRQPPGKGLEWIGYVSTTGTTDYNPSLKSRVTMSVDTSKNQFSLKVNSVTAADTAVYYCARAGYPDVWGKGTLVTVSS VL: EIVMTQSPATLSLSPGERATLSCRASESVRSNLAWYQQKPGQAPRLLIYGASNRASGIPARFSGSGSGTDFTLTISSLEPEDFAVYYCQQYHTWPPWAFGGGTKVEIK
8 |  |  | binds | binds |  |  |  | AB352 (antibody, IgG1, V domains shown) VH: QVQLQESGPGLVKPSQTLSLTCTVSGFPLSTSRMGVNWIRQPPGKGLEWIGYINPSGATDYNPSLKSRVTMSVDTSKNQFSLKVNSVTAADTAVYYCARAGYPDVWGKGTTVTVSS VL: EIVMTQSPATLSLSPGERATLSCRASQSVSTHLAWYQQKPGQAPRLLIYDATNRATGIPARFSGSGSGTDFTLTISSLEPEDFAVYYCLQYTNYPWTFGGGTKVEIK
9 |  |  | binds | binds | binds |  |  | AB326 (antibody, IgG1, V domains shown) VH: QVQLVQSGAEVKKPGASVKVSCKVSGYTFTSSAISWVRQAPGKGLEWMGGIYPGSGHTIYAQKFQGRVTMTEDTSTDTAYMELSSLKSEDTAVYYCAREGDIFVMDVWGLGTAVTVSS VL: DIQMTQSPSSVSASVGDRVTITCRASMDIRNDLAWYQQKPGKAPKLLIYDASKLETGVPSRFSGSGSGTDFTLTISSLQPEDFANYYCQQAKSFPPTFGGGTKVEIK
